The values that follow come from publication doi:10.1101/2025.08.18.670960.

Results are given in words; binding and its absence hold for the method and conditions named. In cells and extracts the contact can be indirect. Some binding calls cover weakened binding; strength is not graded here. Sequences can lack the tags named with a protein.

The assay addresses T1, GFP-fused RIC-8 (C. elegans) (UniProt Q9GSX9).
T1 sequence: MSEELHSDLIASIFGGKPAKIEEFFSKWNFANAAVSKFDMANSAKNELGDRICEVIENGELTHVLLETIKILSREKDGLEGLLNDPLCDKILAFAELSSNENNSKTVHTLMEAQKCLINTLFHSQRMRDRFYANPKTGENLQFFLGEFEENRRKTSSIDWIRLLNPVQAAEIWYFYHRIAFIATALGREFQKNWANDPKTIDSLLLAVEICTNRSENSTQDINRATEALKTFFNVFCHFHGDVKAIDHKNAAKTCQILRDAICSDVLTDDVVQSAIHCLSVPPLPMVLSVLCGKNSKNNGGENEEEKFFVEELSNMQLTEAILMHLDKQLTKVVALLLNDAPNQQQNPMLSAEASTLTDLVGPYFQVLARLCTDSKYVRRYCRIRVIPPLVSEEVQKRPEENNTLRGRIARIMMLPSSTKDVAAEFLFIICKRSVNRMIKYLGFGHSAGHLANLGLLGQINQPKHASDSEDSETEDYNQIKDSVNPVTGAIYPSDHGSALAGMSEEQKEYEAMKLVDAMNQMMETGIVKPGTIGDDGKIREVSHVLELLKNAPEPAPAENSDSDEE
As to the kind of experiment: FRET or BRET; FRET-FLIM in vivo: RIC-8::GFP alone or with TagRFP-tagged ODR-3 in AWC neurons under the ceh-36Δ promoter; read-out is GFP lifetime.

B1: TagRFP-tagged ODR-3^WT (protein, UniProt Q18434 1-356)
chain: MGSCQSNENSEGNARNKEIEKQLNADKRAGSSIVKLLLLGAGECGKSTVLKQMQILHSNGFTEEEVNEKRAIVYNNTVSAMCTILRAMDGVLHLPLENGQKEAEKAIVMKVQENGEEGEALTEEVSKAIQSLWADPGVKKAFEMRSEYQLPDSAKYFLDNCQRISEPGYRPNDQDILYSRVATTGVVEVKFKIKELDFRVFDVGGQRSERRKWIHCFDNVESIIFITAISEYDQVLFEDETTNRMIESMQLFNSICNSTWFLSTAMILFMNKKDLFMEKIQRVNITTAFPDYEGGQNYEEAVSFIKQKFAELNLNPDKKTIYMHETCATDTNQVQLVISSVIDTIIQKNLQKAGMM
As to B1, the binding entry was “binds”.

B2: TagRFP-tagged ODR-3^A328P (protein, UniProt Q18434 1-356)
chain: MGSCQSNENSEGNARNKEIEKQLNADKRAGSSIVKLLLLGAGECGKSTVLKQMQILHSNGFTEEEVNEKRAIVYNNTVSAMCTILRAMDGVLHLPLENGQKEAEKAIVMKVQENGEEGEALTEEVSKAIQSLWADPGVKKAFEMRSEYQLPDSAKYFLDNCQRISEPGYRPNDQDILYSRVATTGVVEVKFKIKELDFRVFDVGGQRSERRKWIHCFDNVESIIFITAISEYDQVLFEDETTNRMIESMQLFNSICNSTWFLSTAMILFMNKKDLFMEKIQRVNITTAFPDYEGGQNYEEAVSFIKQKFAELNLNPDKKTIYMHETCPTDTNQVQLVISSVIDTIIQKNLQKAGMM
Turning to B2, the binding result is listed as “binds”.
